# The other results are listed elsewhere or left out. Shown are side measurements of this screen, not its main read-out; they come without a call. Most of these compounds were active or inconclusive in the main read-out, so they are no random draw. Words in brackets tell the shape of the fitted curve; partial curves, single points and poor fits give uncertain potencies.
# Assay: qHTS Assay for Lipid Storage Modulators in Drosophila S3 Cells;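 as to cell number change: cells counted by Cell Tracker Red CMTPX staining in the red channel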
# Settings: BODIPY lipid droplet fluorescence, 18-24 h; for cell number change: measured here: cell count max response, cells fed with added oleic acid
# Outline: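 Drosophila S3 cells loaded with oleic acid (400 uM, as added) and compounds at several concentrations; lipid droplets imaged by 488-nm laser-scanning cytometry, 500–530 nm intensity and object ratio to cell channel. Percent activity normalized to 20 uM Triacsin C.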
# [1] = measured here: cell number channel AC50, cells fed with added oleic acid
# [2] = measured here: lipid fluorescence (Fed channel) AC50, cells fed with added oleic acid
compound,measurement,setting,value
COc1ccc(OC)c(S(=O)(=O)Nc2ccc(Oc3ccccc3)cc2)c1,cell number change,,-36%
same,AC50,[1],"0.082 µM [falling, full curve]"
same,AC50,[2],"0.082 µM [falling, full curve]"
CCOc1ccc(-n2c(N)c(C(=O)NCc3cccnc3)sc2=S)cc1,cell number change,,63.9%
same,AC50,[1],"18.4 µM [rising, single point]"
C=C(C)c1cccc(C(C)(C)NC(=O)Nc2cc(C)ccn2)c1,cell number change,,-24.8%
same,AC50,[2],"20.6 µM [falling, single point]"
CCN1CCCC1CNC(=O)c1cc2cc(OC)c(OC)cc2[nH]1 (centres undefined),cell number change,,-6.61%
same,AC50,[2],"0.731 µM [rising, single point]"
NC(=O)C1CCN(C(=O)c2ccc(F)c(S(=O)(=O)N3CCOCC3)c2)CC1,cell number change,,-8.2%
same,AC50,[1],"6.51 µM [falling, single point]"
same,AC50,[2],"6.51 µM [falling, single point]"
O=C(c1cccc([N+](=O)[O-])c1)N1CCCC(C(=O)N2CCc3ccccc3C2)C1 (centres undefined),AC50,[1],"0.00461 µM [rising, full curve, poor fit]"
COc1ccc(Cl)cc1N1C(=O)[C@@H]2C(c3cccc(OC)c3OC)=NO[C@@H]2C1=O,cell number change,,3.35%
same,AC50,[2],"58 µM [falling, partial curve, poor fit]"
O=C(c1ccc2c(c1)OCCO2)N1CCN(S(=O)(=O)c2c(F)cccc2F)CC1,cell number change,,-37%
same,AC50,[1],"29.1 µM [falling, single point]"
CCC(C)n1c(=S)[nH]c2c(sc3ccc([N+](=O)[O-])cc32)c1=O (centres undefined),cell number change,,-4.29%
same,AC50,[2],"1.64 µM [falling, partial curve]"
Cc1ccc(S(=O)(=O)N2CCCC2C(=O)OCc2nc3ccccc3s2)cc1 (centres undefined),AC50,[2],"6.51 µM [falling, single point]"
Cc1ccc(-c2nnc(SCC(=O)NC3CC3)o2)cc1,AC50,[2],"9.2 µM [falling, partial curve]"
COc1ccc(N2CCN(C(=O)CSc3nnc4c(C)cc5c(C)cc(C)cc5n34)CC2)cc1,AC50,[2],"0.13 µM [rising, full curve, poor fit]"
CC(C)COC(=O)n1c(=O)oc2ccc(S(=O)(=O)N3CCCCC3)cc21,cell number change,,-42.8%
CCn1c(COc2ccc(=O)n(-c3ccccc3)n2)nnc1SCc1ccc(C)cc1,cell number change,,1.6%
same,AC50,[2],"7.31 µM [rising, partial curve]"
CC1CCCN(C2=C(NS(=O)(=O)c3ccc(Br)cc3)C(=O)c3ccccc3C2=O)C1 (centres undefined),cell number change,,-54.5%
same,AC50,[1],"6.51 µM [falling, full curve]"
same,AC50,[2],"11.6 µM [falling, single point]"
CC(=O)c1cc(CN2CCCCC2)cc(OC(C)C)c1,cell number change,,-26.1%
same,AC50,[1],"1.46 µM [falling, full curve, poor fit]"
same,AC50,[2],"3.66 µM [falling, full curve]"
NS(=O)(=O)c1cccc(NC(=O)CSc2nnc(-c3ccccc3F)n2C2CC2)c1,cell number change,,-52.6%
same,AC50,[1],"20.6 µM [falling, single point]"
same,AC50,[2],"29.1 µM [falling, single point]"
CN(C)Cc1c(O)ccc2oc(Cc3ccccc3)cc12,AC50,[1],"1.64 µM [falling, partial curve]"
CC(=O)c1ccc(S(=O)(=O)N(Cc2cc3cc4c(cc3[nH]c2=O)OCCO4)CC2CCCO2)cc1 (centres undefined),cell number change,,-4.68%
same,AC50,[2],"0.00461 µM [falling, full curve, poor fit]"
O=C(C1CC1)N1c2ccccc2Sc2ccccc21,cell number change,,-25.7%
same,AC50,[2],"0.411 µM [falling, partial curve, poor fit]"
O=C(COc1ccc(C(=S)N2CCOCC2)cc1)N1CCCC1,cell number change,,-7.08%
COC(=O)c1ccccc1S(=O)(=O)N1Cc2cc([N+](=O)[O-])ccc2Oc2ccccc21,cell number change,,39.6%
same,AC50,[1],"9.2 µM [rising, partial curve]"
Cc1cccc(C#Cc2ccccc2)n1,cell number change,,40.1%
same,AC50,[1],"0.082 µM [rising, full curve, poor fit]"
same,AC50,[2],"4.61 µM [rising, full curve]"
CCN(CC)CC(=O)Nc1sc(C)cc1C(=O)c1ccccc1,cell number change,,147%
same,AC50,[1],"18.4 µM [rising, partial curve]"
same,AC50,[2],"29.1 µM [rising, single point]"
S=C(Nc1ccccc1)N1N=CCC1c1ccccc1 (centres undefined),cell number change,,25%
same,AC50,[2],"2.31 µM [rising, partial curve]"
COc1cc(NC(=S)N2CCN(S(=O)(=O)c3ccc(F)cc3)CC2)cc(OC)c1,cell number change,,-12.9%
same,AC50,[2],"29.1 µM [falling, single point]"
c1ccc(-c2nnc(-c3ccccn3)s2)nc1,cell number change,,-1.91%
CCCn1c(-c2ccncc2)n[nH]c1=S,cell number change,,22.4%
O=C(NCc1ccco1)c1ccc2c(c1)N(Cc1ccc(Cl)cc1)CCS2,AC50,[1],"0.082 µM [rising, full curve, poor fit]"
CC(=O)Nc1ccc(/C=N/NC(=O)c2cc3cc(C)ccc3nc2C)cc1,cell number change,,47.5%
same,AC50,[1],"0.116 µM [rising, full curve, poor fit]"
O=C(NCC(=O)N(CCc1ccccc1)C(C(=O)NC1CCCC1)c1cccnc1)c1ccco1 (centres undefined),AC50,[1],"0.651 µM [rising, full curve]"
same,AC50,[2],"0.517 µM [rising, full curve]"
CCOC(=O)c1cc(C)sc1/N=C/C1C(=O)CCCC1=O,cell number change,,6.93%
same,AC50,[2],"16.4 µM [rising, partial curve]"
COc1ccc(NC(=O)Cn2nnc3ccccc32)c([N+](=O)[O-])c1,cell number change,,68.8%
same,AC50,[1],"2.59 µM [rising, full curve]"
same,AC50,[2],"2.59 µM [rising, full curve]"
COc1ccc(CN2CCC(n3nccc3NC(=O)C3CC3)CC2)c(OC)c1OC,cell number change,,16.1%
same,AC50,[2],"4.11 µM [rising, full curve]"
CCOC(=O)Nc1ccc2c(c1)N(C(=O)CCN(CC)CC)c1ccccc1S2=O (centres undefined),cell number change,,-59.8%
same,AC50,[1],"29.1 µM [falling, single point]"
COc1ccc(NC(=O)COC(=O)CC2Sc3ccccc3NC2=O)cc1 (centres undefined),cell number change,,2.21%
Cc1ccc(NC(=O)COC(=O)C2CC2(Cl)Cl)cc1C (centres undefined),cell number change,,21.3%
same,AC50,[2],"1.46 µM [falling, partial curve, poor fit]"
Cc1ccc(SCc2[nH]nc3c2C2(C(=O)N(C)c4ccccc42)C(C#N)=C(N)O3)cc1 (centres undefined),cell number change,,27.5%
same,AC50,[2],"5.17 µM [falling, partial curve]"
O=C(Nc1cccc(S(=O)(=O)NC2=NCCCCC2)c1)c1cccnc1Cl,cell number change,,-36.1%
same,AC50,[1],"7.31 µM [falling, partial curve, poor fit]"
same,AC50,[2],"14.6 µM [falling, partial curve]"
CSCC[C@H](NC(=O)OCc1ccccc1)C(=O)O,cell number change,,-8.49%
same,AC50,[2],"23.1 µM [falling, partial curve]"
S=C(Nc1ccccc1Cl)N(CCCN1CCOCC1)Cc1ccco1,cell number change,,2.23%
same,AC50,[2],"2.31 µM [rising, single point]"
Cn1nccc1C(=O)N1CCN(c2cccc(C(F)(F)F)c2)CC1,cell number change,,14.6%
same,AC50,[2],"29.1 µM [falling, single point]"
COc1ccc(NS(=O)(=O)c2ccc(N3CCCCC3)c(N)c2)cc1,cell number change,,-47.3%
same,AC50,[1],"14.6 µM [falling, partial curve, poor fit]"
same,AC50,[2],"0.82 µM [falling, full curve, poor fit]"
O=C(Nc1ccc(Br)cc1)c1ccco1,cell number change,,21.8%
same,AC50,[2],"2.59 µM [falling, partial curve]"
Cc1cc(C)nc(NC(=O)c2ccc(Cl)cc2[N+](=O)[O-])c1,cell number change,,-56.4%
same,AC50,[1],"8.2 µM [falling, single point]"
CC(NC(=O)CN1CCN(c2ccccc2F)CC1)c1ccccc1 (centres undefined),cell number change,,-13.5%
same,AC50,[2],"20.6 µM [rising, single point]"
CC1CCCC(NCC(O)COC(c2ccc(F)cc2)c2ccc(F)cc2)C1C (centres undefined),cell number change,,-120%
same,AC50,[1],"20.6 µM [falling, partial curve, poor fit]"
same,AC50,[2],"29.1 µM [falling, partial curve]"
CCN(CC)CCOc1ccc2nc(N(C)C)sc2c1,cell number change,,-3.61%
same,AC50,[2],"2.31 µM [falling, partial curve, poor fit]"
COc1ccc(-c2nc(NC(=O)C3CCN(c4nc5ccccc5o4)CC3)sc2C)cc1,cell number change,,-20.7%
same,AC50,[2],"0.00517 µM [rising, full curve, poor fit]"
COc1ccc(C(=O)NC(=S)Nc2ccc3[nH]c(=O)[nH]c3c2)c(OC)c1,cell number change,,-17.2%
same,AC50,[2],"0.116 µM [rising, single point]"
COc1ccccc1NC(=O)CSc1nnc(COc2ccccc2C)o1,cell number change,,28.2%
same,AC50,[2],"5.17 µM [falling, single point]"
CCOc1ccccc1NC(=O)CN1C(=O)C(=O)N(Cc2ccco2)C1=O,cell number change,,21.4%
same,AC50,[1],"1.03 µM [rising, full curve]"
N#CC1=C(N)Oc2cc(O)c(Cl)cc2C1c1cccnc1 (centres undefined),cell number change,,5.49%
same,AC50,[2],"0.651 µM [rising, single point]"
COc1ccc(-c2c(-c3ccc(OC)cc3O)nc(C)nc2C(F)(F)F)cc1,cell number change,,3.55%
Cc1cccc(C)c1NC(=O)CNC(=O)C(Cc1ccccc1)NC(=O)c1ccccc1 (centres undefined),cell number change,,19.9%
same,AC50,[2],"7.31 µM [rising, full curve]"
Cc1[nH]nc(N)c1N=Nc1ccc(Br)cc1,cell number change,,82.8%
same,AC50,[1],"29.1 µM [rising, single point]"
CCOC(=O)C(C#N)C(Cc1ccccc1)c1ccco1 (centres undefined),AC50,[2],"0.651 µM [falling, single point]"
O=C(O)/C(=C\c1cccc(F)c1)c1ccc(S(=O)(=O)N2CCCC2)s1,cell number change,,-3.3%
same,AC50,[2],"0.411 µM [rising, full curve, poor fit]"

# An excerpt of these results, with bars between the fields:
compound | measurement | setting | value
COc1ccc(Cl)cc1N1C(=O)[C@@H]2C(c3cccc(OC)c3OC)=NO[C@@H]2C1=O | AC50 | [2] | 58 µM [falling, partial curve, poor fit]
COc1ccc(N2CCN(C(=O)CSc3nnc4c(C)cc5c(C)cc(C)cc5n34)CC2)cc1 | AC50 | [2] | 0.13 µM [rising, full curve, poor fit]
COC(=O)c1ccccc1S(=O)(=O)N1Cc2cc([N+](=O)[O-])ccc2Oc2ccccc21 | cell number change |  | 39.6%
O=C(Nc1cccc(S(=O)(=O)NC2=NCCCCC2)c1)c1cccnc1Cl | AC50 | [2] | 14.6 µM [falling, partial curve]

# An excerpt of these results, bar-delimited:
compound | measurement | setting | value
NS(=O)(=O)c1cccc(NC(=O)CSc2nnc(-c3ccccc3F)n2C2CC2)c1 | AC50 | [2] | 29.1 µM [falling, single point]
CCN(CC)CCOc1ccc2nc(N(C)C)sc2c1 | cell number change |  | -3.61%
